This is one part of the list. Further columns of the screen follow, without active or inactive calls. The list favours compounds with an active or inconclusive main result. Potencies come from curve fits of mixed quality, noted in brackets.
Assay: qHTS Assay to Find Inhibitors of Chronic Active B-Cell Receptor Signaling
Conditions: ABC-DLBCL IkBa-CBG/CBR reporter, luminescence ratio (green luciferase fused to IkBa over red control in TMD8 lymphoma cells), 4 h
Procedure, shortened: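 TMD8 human ABC-DLBCL cells with doxycycline-inducible IκBα–green luciferase fusion and unfused red luciferase, in 0.5% FBS medium; compounds up to 46 uM, 4 h at 37C. Green/red luminescence ratio, filter-overlap corrected, fitted to concentration-response curves.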

[1] = measured here: CBR red luminescence, cell number
[2] = measured here: IkBa-CBG green luminescence

| SMILES | AC50 [1] | AC50 [2] |
| --- | --- | --- |
| Cc1cccc(/C=N/NC(=O)c2cc(C)nc3ccccc23)n1 | 35.5 µM [falling, single point] |  |
| CC(=O)CCc1c[nH]c2c(C(=O)O)cccc12 | 0.411 µM [rising, partial curve, poor fit] |  |
| FC(F)(F)c1ccc(Oc2ccc3ccccc3c2Br)nc1 | 14.6 µM [rising, partial curve, poor fit] |  |
| CCOC(=O)c1ccccc1NC(=O)CSc1nnnn1C | 13 µM [falling, partial curve, poor fit] |  |
| Cc1ccccc1OCC(=O)NNC(=O)CCN1C(=O)c2ccccc2C1=O | 17.8 µM [rising, single point] |  |
| COc1ccc(CNc2cc(C)nc3ncnn23)c(OC)c1 | 13 µM [rising, partial curve] |  |
| COc1ccccc1C(=O)Nc1nnc(S(=O)(=O)N2CCCCCC2)s1 | 0.316 µM [rising, full curve, poor fit] |  |
| CCn1c(SCC(=O)N/N=C/c2c[nH]c3ccccc23)nnc1-c1ccc(C(C)(C)C)cc1 | 16.4 µM [falling, single point] |  |
| Cc1nc(SCC(=O)c2ccccc2)c(C#N)c(-c2ccco2)c1C(=O)NCc1ccco1 | 35.5 µM [falling, single point] |  |
| Cc1ccc(OCC(O)CNC(=O)c2ccccc2C(=O)O)cc1 (configuration not stated) | 10 µM [rising, partial curve, poor fit] |  |
| Nc1c(C(=O)N2CCCCCC2)oc2ccccc12 | 5.01 µM [rising, full curve, poor fit] |  |
| Cc1ccc(-c2csnn2)cc1 | 35.5 µM [rising, single point] |  |
| CC(C)CC(=O)NC(=S)Nc1ccc(Cl)cn1 | 23.1 µM [rising, partial curve, poor fit] |  |
| CCC(COC)Oc1cc(NCc2ccccc2)c2ncn(C(C)C)c2c1 (configuration not stated) | 20.6 µM [falling, single point] | 16.4 µM [rising, partial curve, poor fit] |
| Cc1ccccc1S(=O)(=O)N1[C@@H](c2ccc(Cl)cc2)C(C(=O)O)=CC[C@H]1c1ccc(Cl)cc1 | 23.1 µM [falling, partial curve, poor fit] |  |
| Cc1cccc(-c2nnc(SCC(=O)NC3CC3)n2C)c1 | 8.91 µM [rising, partial curve] |  |
| C[C@H](CO)N1C[C@H](C)[C@@H](CN(C)C(=O)Nc2ccc(C(F)(F)F)cc2)Oc2c(NC(=O)Nc3ccc(C(F)(F)F)cc3)cccc2C1=O | 20.6 µM [falling, single point] |  |
| COc1cccc(NC(=O)CN(c2ccc([N+](=O)[O-])cc2)S(=O)(=O)c2ccccc2)c1 | 29.1 µM [falling, partial curve, poor fit] |  |
| CC(C)(C)C(=O)NNC(=O)c1cc(C(C)(C)C)nn1Cc1ccccc1 | 35.5 µM [rising, single point] |  |
| CCOC(=O)c1sc(NC(=O)c2ccc3nc[nH]c3c2)nc1C | 0.708 µM [falling, full curve] |  |
| COCCCNC(=O)CC1C[C@H](C(=O)N2CCCCC2)[C@@]2(CCc3ccccc3)c3[nH]c4ccc(OC)cc4c3CCN2C1=O (some centres not stated) | 25.9 µM [rising, single point] |  |

| SMILES | AC50 [1] | AC50 [2] |
| --- | --- | --- |
| CC1CCN(c2nnc(N)s2)CC1 | 8.91 µM [falling, partial curve, poor fit] |  |
| CCCC(C(=O)O)n1c(O)c(C=C2N=c3ccccc3=N2)sc1=S (configuration not stated) | 1 µM [falling, partial curve, poor fit] |  |
| O=c1[nH]c2ccccc2n1CCCSCCCn1c(=O)[nH]c2ccccc21 | 11.2 µM [falling, partial curve, poor fit] |  |
| CC(=O)c1cccc(Nc2ccc(-c3ccccc3F)nn2)c1 | 14.1 µM [falling, partial curve] |  |
| C=C(C)C(=O)Nc1nnc(-c2cccs2)s1 | 29.1 µM [falling, single point] |  |
| O=C(CSC1=NCCN1)Nc1cccc([N+](=O)[O-])c1 | 14.1 µM [falling, partial curve, poor fit] |  |
| O=C(NCC1CCCO1)c1ccccc1-c1nc(-c2ccc(Cl)cc2)no1 (configuration not stated) | 13 µM [rising, partial curve] |  |
| CCCCn1nnc(NC(=S)NC(=O)c2cccs2)n1 | 20.6 µM [falling, single point] | 25.9 µM [falling, single point] |
| Cc1cc(OCC(=O)O/N=C(\N)c2ccccc2)ccc1Br | 29.1 µM [falling, single point] |  |
| Oc1ccc(NC(=S)N=Nc2c(O)[nH]c3ccc(Br)cc23)cc1 | 14.1 µM [falling, partial curve] | 31.6 µM [rising, partial curve, poor fit] |
| CCOC(=O)N1CCN(c2c(NCc3ccc(Cl)cc3)c(=O)c2=O)CC1 | 29.1 µM [rising, single point] | 18.4 µM [falling, single point] |
| O=c1[nH]c(C(Cl)Cl)nc2sc3c(c12)CCN(Cc1ccccc1)C3 | 23.1 µM [rising, partial curve, poor fit] |  |
| O=c1oc2ccccc2c(NC2CCCCC2)c1NS(=O)(=O)c1ccc(Cl)cc1 | 2.82 µM [falling, partial curve, poor fit] |  |
| O=C(/C=C/c1ccccc1)Nc1ccc(Cl)cn1 | 3.55 µM [falling, full curve] |  |
| O=C(O)CC(NC(=O)c1ccccc1NC(=O)c1ccccc1)C(=O)O (configuration not stated) | 7.31 µM [falling, partial curve] |  |
| COc1ccc(Cc2nn3c(-c4cc(OC)c(OC)c(OC)c4)nnc3s2)cc1 | 8.2 µM [falling, partial curve, poor fit] |  |
| O=C(CN1CCN(C(=O)c2c(F)cccc2F)CC1)Nc1ccccc1F | 29.1 µM [rising, single point] |  |
| C/C(N)=C(/C#N)C(=O)CSc1nnc(-c2ccccc2)n1C | 7.08 µM [rising, partial curve, poor fit] |  |
| O=C1NC(=O)/C(=C/C(=O)N2CCOCC2)S1 | 11.2 µM [falling, partial curve] |  |
| O=C(Cn1cc(C(=O)COc2ccccc2)c2ccccc21)NCc1ccco1 | 20.6 µM [falling, single point] |  |
| Cc1ccc(C2CC(=O)C=C(Nc3ccc(Cl)cc3)C2)cc1 (configuration not stated) | 0.731 µM [rising, partial curve, poor fit] |  |

A portion of the results above, for reference:

| SMILES | AC50 [1] | AC50 [2] |
| --- | --- | --- |
| Cc1nc(SCC(=O)c2ccccc2)c(C#N)c(-c2ccco2)c1C(=O)NCc1ccco1 | 35.5 µM [falling, single point] |  |
| Cc1ccc(OCC(O)CNC(=O)c2ccccc2C(=O)O)cc1 (configuration not stated) | 10 µM [rising, partial curve, poor fit] |  |
| Nc1c(C(=O)N2CCCCCC2)oc2ccccc12 | 5.01 µM [rising, full curve, poor fit] |  |
| Cc1ccc(-c2csnn2)cc1 | 35.5 µM [rising, single point] |  |

Next results follow.

| SMILES | AC50 [1] | AC50 [2] |
| --- | --- | --- |
| O=C(CCNC(=O)c1ccc([N+](=O)[O-])cc1)Nc1cccc(S(=O)(=O)N2CCCCC2)c1 | 11.2 µM [falling, partial curve, poor fit] |  |
| O=C(NCc1ccncc1)C(F)(F)C(F)(F)C(=O)NCc1ccncc1 | 1.84 µM [falling, partial curve, poor fit] |  |
| CC(C)=CCCC(C)CN1CCC(n2nccc2NC(=O)C2CCCC2)CC1 (configuration not stated) | 0.708 µM [rising, partial curve, poor fit] |  |
| COc1ccccc1NC(=O)Cn1ccn(-c2cccc3ccccc23)c(=O)c1=O | 1.84 µM [falling, full curve, poor fit] |  |
| COc1ccccc1NC(=O)c1csc2c1CCC(C)C2 (configuration not stated) | 3.16 µM [rising, partial curve] |  |
| Cc1ccc(C(=O)N/N=C\c2c(C)nn(-c3ccccc3)c2Cl)cn1 | 7.31 µM [rising, partial curve, poor fit] |  |
| Oc1ccc(Nc2ncnc3ccccc23)cc1 | 7.94 µM [falling, partial curve] |  |
| COc1ccc(C(CCNCc2ccc(OC(C)C)cc2)c2ccccc2OC)cc1 (configuration not stated) | 15.8 µM [falling, single point] |  |
| CCOC(=O)c1c(C)[nH]c(C)c1S(=O)(=O)N(C)CC(=O)NCc1ccc(Cl)cc1 | 5.01 µM [rising, full curve, poor fit] |  |
| CCN(CCCNC(=O)CC(C(=O)N1CCc2ccccc21)n1ccnc1)c1ccccc1 (configuration not stated) | 35.5 µM [falling, single point] |  |
| O=C(O)c1ccc2nc(-c3cc4cc(Cl)ccc4oc3=O)[nH]c2c1 | 0.1 µM [falling, full curve] |  |
| COc1ccc(/C=C/c2ccncc2)cc1OC | 0.259 µM [rising, full curve, poor fit] | 23.1 µM [falling, partial curve] |
| CC(OC(=O)Cn1ccccc1=O)C(=O)Nc1cc(Cl)cc(Cl)c1 (configuration not stated) | 9.2 µM [rising, partial curve] |  |
| COc1ccccc1/C=C/C(=O)OCC(=O)c1cc(C)n(C)c1C | 25.9 µM [falling, partial curve, poor fit] |  |
| COCCNC(=O)CSc1nc(-c2ccccc2)cs1 | 25.1 µM [rising, single point] |  |
| Cc1ccc2c(c1)C1(C(=O)N2)N2CCCC2C(C(=O)c2ccc3ccccc3c2)C12C(=O)Nc1ccccc12 (configuration not stated) | 35.5 µM [falling, partial curve, poor fit] | 20 µM [rising, partial curve, poor fit] |
| COc1ccc(S(=O)(=O)N2CCc3ccccc3C2)cc1 | 6.31 µM [rising, full curve, poor fit] |  |
| CCOc1ccc(NC(=O)c2nn(C)cc2Br)cc1 | 8.91 µM [falling, partial curve] |  |
| Cc1nn(-c2ccccc2)c(C)c1/C=C/C(=O)OCC(=O)Nc1ncc(C(F)(F)F)cc1Cl | 9.2 µM [rising, partial curve, poor fit] |  |
